In article PMC8038994, “RNA and DNA G-quadruplexes bind to human dicer and inhibit its activity”:

Biological target: T1, hDicer PPC cassette (Homo sapiens) (UniProt Q9UPY3)
T1 sequence (looked up): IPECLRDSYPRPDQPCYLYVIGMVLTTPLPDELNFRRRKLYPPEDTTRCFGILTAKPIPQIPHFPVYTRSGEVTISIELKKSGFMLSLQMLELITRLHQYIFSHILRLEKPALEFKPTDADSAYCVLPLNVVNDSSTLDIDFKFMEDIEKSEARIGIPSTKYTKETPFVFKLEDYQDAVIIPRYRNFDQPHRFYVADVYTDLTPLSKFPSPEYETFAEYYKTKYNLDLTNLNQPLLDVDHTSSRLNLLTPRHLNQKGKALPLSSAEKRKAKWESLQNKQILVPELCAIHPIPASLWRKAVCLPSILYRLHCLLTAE
Assay: EMSA
Conditions: EMSA: 20 mM Tris-HCl pH 7.4, 100 mM KCl, 30 min on ice; 5% or 10% native PAGE at 4 C in 1x TBE; G-rich oligos folded in 50 mM KCl; recombinant protein; residues 753-1068; protein details: N-terminal 6xHis (pMCSG7); label: 5'-32P

Work on “UCGAAGUAUUCCGCGUACGUG / CGUACGCGGAAUACUUCGAAA [dsRNA_OV]” yielded a pKd of 7.30.

pKd: −log10 of the molar value. For at least one entry, the source does not settle the construct or the ends of the probe. Tags and fusion partners may be left off the protein sequences shown.
